Laboratory results: article PMC9374335, “C11orf94/Frey is a key regulator for male fertility by controlling Izumo1 complex assembly” (Science Advances, 2022)
Results are given in words; binding and its absence hold for the method and conditions named. Binding seen in cells or lysates may run through a third protein. These calls come from enrichment with a bait or labelling near it, and not all partners need be listed.

T1: C11orf94 (endogenous, mouse testis) (mouse (endogenous in testis)) (UniProt Q8CF31)
T1 sequence: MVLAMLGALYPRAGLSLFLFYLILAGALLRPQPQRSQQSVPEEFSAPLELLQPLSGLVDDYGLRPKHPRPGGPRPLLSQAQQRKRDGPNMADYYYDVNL

T2: C11orf94 (endogenous, mouse testis) (mouse (endogenous in testis)), Q8CF31
T2 chain: T1 sequence

B1: SPPL2c (endogenous, mouse testis) (enzyme, UniProt A2A6C4 29-690)
chain: EYGLVRVVSKNWSKDYCVLYSSDYVNLPRDLHHAPLLSLHDGTKTPWCPDEDSFHQAQDSSPRQRPLHQTTTMVTRGNCSFYAKGWLAQDQGAQGLLIVSRARNQQCSDTISKPQDPSKPWPALTIPVAVLRYTDMLDIVSHTYGDTDVRVAMFAPLEPVTDYNMAIIFILAVGTVAAGGYWAGLMEANKLQRRQAQRGGGLGGHNQQQTVAAERSQRAWEDDDFEDAPMDFTPAMTGAVVTMSCSIMILLYFFYDCFVYVMIGIFSLGASTGLYSCLAPILCHLPLWRYQWVLPGQRVSVTWPLLLLAGLCAMVTVLWVIHRNEDHWAWLLQDTLGVAYCLFVLRRVRLPTFKNCTLFLLALLAFDVFFVFITPLFTKTGESIMVEVASGPADSSSHERLPMVLKVPRLSFSALTLCNQPFSILGFGDIVVPGFLVAYCHRFDMQVQSRQVYYMACTVAYAVGLLVTFVAMILMQMGQPALLYLVSSTLLTSLAVATCRQEFTLFWTGQGRAKIPAEPVAQPCIASAVGSKMKLEDAKDSRTTNRFEQAVDGESGDLESSTGDDMAEMVTLSEDEATSPEGHSESSEGWSDTNLDPNELPSGSPMALEAMLIPLIQPIPHPSELGHIRTQSRVHDSSLPWMGLHKRKGLKVKKSMSAQAPL
B2: Izumo1 (endogenous, mouse testis and sperm), Q9D9J7 22-397 (protein)
chain: CIKCDQFVTDALKTFENTYLNDHLPHDIHKNVMRMVNHEVSSFGVVTSAEDSYLGAVDENTLEQATWSFLKDLKRITDSDLKGELFIKELLWMLRHQKDIFNNLARQFQKEVLCPNKCGVMSQTLIWCLKCEKQLHICRKSLDCGERHIEVHRSEDLVLDCLLSWHRASKGLTDYSFYRVWENSSETLIAKGKEPYLTKSMVGPEDAGNYRCVLDTINQGHATVIRYDVTVLPPKHSEENQPPNIITQEEHETPVHVTPQTPPGQEPESELYPELHPELYPELIPTVAQNPEKKMKTRLLILLTLGFVVLVASIIISVLHFRKVSAKLKNASDEVKPTASGSKSDQSLSQQMGLKKASQADFNSDYSGDKSEATEN

Key:
[1] = target: T1, C11orf94 (endogenous, mouse testis) (mouse (endogenous in testis)); experiment: affinity purification with mass spectrometry; C11orf94 precipitated with anti-C11orf94 Sepharose from CHAPSO homogenates of wild-type testes; C11orf94-deficient testes as negative control; on-bead trypsin digest, nanoLC-MS/MS; three runs
[2] = target: T2, C11orf94 (endogenous, mouse testis) …; experiment: as above; conditions: remark: other sources report otherwise

Binder | binding [1] | binding [2]
B1 | binds | 
B2 |  | binds
